Reference: US9585382B2, “Composition comprising a pesticide and an acetal solvent” (priority 2011, dated 2017)

Assays:
[1] = Odor, blind test involving three persons and safety data sheets; settings: blind test involving three persons
[2] = safety data sheet (Acros Organics; TCI Europe NV); cited from earlier work

SMILES	odor [1]	odor as described in safety data sheet [2]
COc1ccc(C(OC)OC)cc1 [p-Anisaldehyde dimethyl acetal]	mild odor	pleasant odor; also recorded: floral
COC(OC)c1ccccc1 [Benzaldehyde dimethyl acetal, reference compound]	pungent odor	strong note, metallic, almond

“Also recorded” adds a separate entry of the source.
